Values of other authors as cited in patent US8486947B2, “Treatment of Parkinson's disease, obstructive sleep apnea, dementia with Lewy bodies, vascular dementia with non-imidazole alkylamines histamine H3-receptor ligands” (Bioprojet, priority 2005, dated 2013).
For at least one compound, name, drawing or mass did not settle the structure.

Tested on: histamine H3-receptor
Conditions: literature reports; cited from earlier work

In the case of `CN1CCN(C2=Nc3cc(Cl)ccc3Nc3ccccc32)CC1` [clozapine], the H3-receptor antagonism potency is listed as “very low potency”.
